Article PMC7280518
No constants are given. Whether binding was seen depends on the method and setting. For some assays here: Binding seen in cells or lysates may run through a third protein. Some entries that bind do so weakly or less than the wild type.

Sequences of proteins named here, by UniProt entry; tags and fusion partners are left off.
UniProt Q9WTZ1: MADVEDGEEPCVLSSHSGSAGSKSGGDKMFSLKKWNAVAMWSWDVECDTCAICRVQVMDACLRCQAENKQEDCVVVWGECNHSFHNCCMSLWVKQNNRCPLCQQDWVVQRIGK

How the values were obtained:
[1] = molecular target: Human Cullin 5 (CUL5), full-length (human) (UniProt Q93034); experiment: cryo-EM structure; CUL5-RBX2 co-expressed in E. coli and purified as a complex; 1-5 uM, 0.01-0.05% beta-OG, 20 degree tilt; 5.2 A (GSFSC); both purified
[2] = molecular target: Human Cullin 5 (CUL5), full-length (human) (UniProt Q93034); experiment: pull-down + SEC; sub-complexes co-expressed in E. coli, or lysates combined, then Ni-NTA (His8 on ASB9, His6 on CUL5) and Superdex S200; composition by SEC, SDS-PAGE and LC-MS/MS

Mouse RBX2 (RING-box protein 2) (from UniProt Q9WTZ1 1-113)
binding [1]: binds
binding [2]: binds
